Like-named read-outs stand apart in the source and are kept apart here. Results are given in words; binding and its absence hold for the method and conditions named. Binding seen in cells or lysates may run through a third protein. Some binding calls cover weakened binding; strength is not graded here. Sequences can lack the tags named with a protein.
Assays:
[1] = molecular target: giantin (human (endogenous in HeLa, LNCaP, PC-3, liver tissue)) (UniProt Q14789); test: co-IP
[2] = molecular target: giantin (human (endogenous in HeLa, LNCaP, PC-3, liver tissue)) (UniProt Q14789); test: co-IP; remark: listed apart in the source
[3] = molecular target: T1, recombinant human N-terminal GST-giantin fusion peptide (3-92 aa) (human) (UniProt Q14789); test: pull-down
T1 sequence: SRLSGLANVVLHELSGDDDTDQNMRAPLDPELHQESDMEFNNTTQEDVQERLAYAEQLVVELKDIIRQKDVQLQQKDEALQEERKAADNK

binding [1]: binds weakly
binding [2]: binds
binding [3]: binds
B1: mannosyl (alpha-1,3-)-glycoprotein beta-1,2-N-acetylglucosaminyltransferase (MGAT1) (enzyme, UniProt P26572 1-445)
chain: MLKKQSAGLVLWGAILFVAWNALLLLFFWTRPAPGRPPSVSALDGDPASLTREVIRLAQDAEVELERQRGLLQQIGDALSSQRGRVPTAAPPAQPRVPVTPAPAVIPILVIACDRSTVRRCLDKLLHYRPSAELFPIIVSQDCGHEETAQAIASYGSAVTHIRQPDLSSIAVPPDHRKFQGYYKIARHYRWALGQVFRQFRFPAAVVVEDDLEVAPDFFEYFRATYPLLKADPSLWCVSAWNDNGKEQMVDASRPELLYRTDFFPGLGWLLLAELWAELEPKWPKAFWDDWMRRPEQRQGRACIRPEISRTMTFGRKGVSHGQFFDQHLKFIKLNQQFVHFTQLDLSYLQREAYDRDFLARVYGAPQLQVEKVRTNDRKELGEVRVQYTGRDSFKAFAKALGVMDDLKSGVPRAGYRGIVTFQFRGRRVHLAPPLTWEGYDPSWN
